Some of the results follow. Single values are uncertain, as repeats are few or missing.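 Cells were imaged in 1,536-well plates, and nuclei stained with an antibody against cleaved PARP were counted against all DNA-stained nuclei to give the apoptosis fraction. Screening doses were chosen to leave most cells alive, and resting and induced cleaved-PARP levels differ strongly between cell lines.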
How the values were obtained:
Experiment in all cases: cleaved PARP positive nuclei fraction relative to DMSO control; melanoma cells; higher = more apoptosis
Conditions in all cases: library dose: low library concentration; 72 h
501Mel = tested on: 501Mel
A101D = tested on: A101D
A2058 = tested on: A2058
A375 = tested on: A375
C32 = tested on: C32
CBRC008 = tested on: CBRC008 (line from a melanoma biopsy)
CBRC013 = tested on: CBRC013 (line from a melanoma biopsy)
CBRC014 = tested on: CBRC014 (line from a melanoma biopsy)
CBRC016 = tested on: CBRC016 (line from a melanoma biopsy)
CBRC017 = tested on: CBRC017 (line from a melanoma biopsy)

SMILES	cleaved PARP positive nuclei fraction (501Mel) [%]	cleaved PARP positive nuclei fraction (A101D) [%]	cleaved PARP positive nuclei fraction (A2058) [%]	cleaved PARP positive nuclei fraction (A375) [%]	cleaved PARP positive nuclei fraction (C32) [%]	cleaved PARP positive nuclei fraction (CBRC008) [%]	cleaved PARP positive nuclei fraction (CBRC013) [%]	cleaved PARP positive nuclei fraction (CBRC014) [%]	cleaved PARP positive nuclei fraction (CBRC016) [%]	cleaved PARP positive nuclei fraction (CBRC017) [%]
Cc1cc(N2CCOCC2)cc2[nH]c(-c3c(NC[C@@H](O)c4cccc(Cl)c4)cc[nH]c3=O)nc12 + CN(NC(=O)CC(=O)NN(C)C(=S)c1ccccc1)C(=S)c1ccccc1 [STA4783] (first compound 0.2 µM, partner dose 0.006 µM)	671	181	118	8020	97.9	4330	252	781	197	491
Cn1c(Nc2ccc(C(F)(F)F)cc2)nc2cc(Oc3ccnc(-c4ncc(C(F)(F)F)[nH]4)c3)ccc21 + COc1cc2c(Oc3ccc4[nH]c(C)cc4c3F)ncnc2cc1OCCCN1CCCC1 [cediranib] (first compound 0.08 µM, partner dose 0.4 µM)	212	123	167	294	154	290	177	105	286	129
C[C@@H]1CCN(C(=O)CC#N)C[C@@H]1N(C)c1ncnc2[nH]ccc12 + NCC(=O)Nc1ccc(-n2nc(C(F)(F)F)cc2-c2ccc3c(ccc4ccccc43)c2)cc1 [OSU03012] (first compound 1 µM, partner dose 1 µM)	342	75.9	60.4	5820	12.4	259	152	78	66	86.8
CC(C)(C)c1cnc(CSc2cnc(NC(=O)C3CCNCC3)s2)o1 + O=C(Nc1cccc(Cl)c1)Nc1ncc(CCNc2ncnc3ccsc23)s1 [SNS314] (first compound 0.01 µM, partner dose 0.0008 µM)	238	41.2	178	112	100	114	113	90.8	140	95.2
C#Cc1cccc(Nc2ncnc3cc(OCCOC)c(OCCOC)cc23)c1 [erlotinib] + C[C@@H]1CCN(C(=O)CC#N)C[C@@H]1N(C)c1ncnc2[nH]ccc12 [CP690550] (first compound 0.8 µM, partner dose 1 µM)	217	121	128	104	37	157	138	90.3	116	89.6
Nc1cccc2c1CN(C1CCC(=O)NC1=O)C2=O (stereo not given) [lenalidomide] + O=C(CCCCCCC(=O)Nc1ccccc1)NO [vorinostat] (first compound 1 µM, partner dose 0.08 µM)	74.3	71.9	62.7	130	52.3	194	162	74.2	122	101
Nc1cccc2c1CN(C1CCC(=O)NC1=O)C2=O (stereo not given) [lenalidomide] + OCCn1cc(-c2cnc3nnn(Cc4ccc5ncccc5c4)c3n2)cn1 [PF04217903] (first compound 1 µM, partner dose 1 µM)	160	40.9	110	39.9	30.6	103	99.7	80.7	79.4	101
C#Cc1cccc(Nc2ncnc3cc(OCCOC)c(OCCOC)cc23)c1 [erlotinib] + COc1cc2c(Oc3ccc4[nH]c(C)cc4c3F)ncnc2cc1OCCCN1CCCC1 [cediranib] (first compound 0.8 µM, partner dose 0.4 µM)	100	38.3	17.3	124	107	193	202	103	76.4	93.8
NC(=O)Nc1cc(-c2cccc(F)c2)sc1C(=O)N[C@H]1CCCNC1 + Cc1cc(N2CCOCC2)cc2[nH]c(-c3c(NC[C@@H](O)c4cccc(Cl)c4)cc[nH]c3=O)nc12 [BMS536924] (first compound 0.02 µM, partner dose 0.2 µM)	277	44.7	63.7	1260	208	391	189	98.1	68.8	107
O=C(CCCCCCC(=O)Nc1ccccc1)NO [vorinostat] + CO[C@@H]1[C@H](N(C)C(=O)c2ccccc2)C[C@H]2O[C@]1(C)n1c3ccccc3c3c4c(c5c6ccccc6n2c5c31)C(=O)NC4 [Midostaurin] (first compound 0.08 µM, partner dose 0.08 µM)	105	227	61.6	121	115	79.5	98.7	86	185	99.3
CC1(C)NC(=O)N(c2ccc([N+](=O)[O-])c(C(F)(F)F)c2)C1=O [nilutamide] + CN(C)S(=O)(=O)c1ccc2c(c1)/C(=C/c1cc3c([nH]1)CCCC3)C(=O)N2 [SU6656] (first compound 1 µM, partner dose 0.4 µM)	72.4	107	170	66.8	78.4	211	78.3	85.3	130	215
Cn1nnc2c(C(N)=O)ncn2c1=O [temozolomide] + C[C@@H]1CCN(C(=O)CC#N)C[C@@H]1N(C)c1ncnc2[nH]ccc12 [CP690550] (first compound 2 µM, partner dose 1 µM)	161	83.1	69.2	108	163	111	107	95.6	60.4	78.5
Cn1c(Nc2ccc(C(F)(F)F)cc2)nc2cc(Oc3ccnc(-c4ncc(C(F)(F)F)[nH]4)c3)ccc21 + O=C(Nc1cccc(Cl)c1)Nc1ncc(CCNc2ncnc3ccsc23)s1 [SNS314] (first compound 0.08 µM, partner dose 0.0008 µM)	149	118	121	433	261	170	283	93.9	118	86.4
Cc1ccc(NC(=O)c2cccc(N(C)C)c2)cc1NC(=O)c1ccc(O)cc1 + CO[C@@H]1[C@H](N(C)C(=O)c2ccccc2)C[C@H]2O[C@]1(C)n1c3ccccc3c3c4c(c5c6ccccc6n2c5c31)C(=O)NC4 [Midostaurin] (first compound 2 µM, partner dose 0.08 µM)	225	133	114	82	166	111	101	102	169	104
Nc1cccc2c1CN(C1CCC(=O)NC1=O)C2=O (stereo not given) [lenalidomide] + O=C(Nc1cccc(Cl)c1)Nc1ncc(CCNc2ncnc3ccsc23)s1 [SNS314] (first compound 1 µM, partner dose 0.0008 µM)	49.5	80.2	91.5	33.9	84.5	243	92.3	106	77.9	70.9
Cn1c(Nc2ccc(C(F)(F)F)cc2)nc2cc(Oc3ccnc(-c4ncc(C(F)(F)F)[nH]4)c3)ccc21 + CC(C)(C)c1cnc(CSc2cnc(NC(=O)C3CCNCC3)s2)o1 [SNS-032] (first compound 0.08 µM, partner dose 0.01 µM)	119	88.9	93.1	546	66.9	331	121	117	98.7	282

Only cleaved PARP positive nuclei fraction (CBRC016) [%] (two entries from above):

| SMILES | cleaved PARP positive nuclei fraction (CBRC016) [%] |
| --- | --- |
| Cc1ccc(NC(=O)c2cccc(N(C)C)c2)cc1NC(=O)c1ccc(O)cc1 + CO[C@@H]1[C@H](N(C)C(=O)c2ccccc2)C[C@H]2O[C@]1(C)n1c3ccccc3c3c4c(c5c6ccccc6n2c5c31)C(=O)NC4 [Midostaurin] (first compound 2 µM, partner dose 0.08 µM) | 169 |
| Nc1cccc2c1CN(C1CCC(=O)NC1=O)C2=O (stereo not given) [lenalidomide] + O=C(Nc1cccc(Cl)c1)Nc1ncc(CCNc2ncnc3ccsc23)s1 [SNS314] (first compound 1 µM, partner dose 0.0008 µM) | 77.9 |

(listing goes on)

SMILES	cleaved PARP positive nuclei fraction (501Mel) [%]	cleaved PARP positive nuclei fraction (A101D) [%]	cleaved PARP positive nuclei fraction (A2058) [%]	cleaved PARP positive nuclei fraction (A375) [%]	cleaved PARP positive nuclei fraction (C32) [%]	cleaved PARP positive nuclei fraction (CBRC008) [%]	cleaved PARP positive nuclei fraction (CBRC013) [%]	cleaved PARP positive nuclei fraction (CBRC014) [%]	cleaved PARP positive nuclei fraction (CBRC016) [%]	cleaved PARP positive nuclei fraction (CBRC017) [%]
Cn1nnc2c(C(N)=O)ncn2c1=O [temozolomide] + O=C(Nc1cccc(Cl)c1)Nc1ncc(CCNc2ncnc3ccsc23)s1 [SNS314] (first compound 2 µM, partner dose 0.0008 µM)	66.6	172	127	23.4	79.1	52.5	65	110	97.8	80.9
Cc1ccc(NC(=O)c2cccc(N(C)C)c2)cc1NC(=O)c1ccc(O)cc1 + O=C(O)c1ccc(-c2c[nH]c3ncc(-c4ccccc4)cc23)cc1C1CCCC1 [GSK650394] (first compound 2 µM, partner dose 0.16 µM)	105	265	40.4	82.1	73.9	135	60.4	122	309	127
CC(C)(C)c1cnc(CSc2cnc(NC(=O)C3CCNCC3)s2)o1 + OCCn1cc(-c2cnc3nnn(Cc4ccc5ncccc5c4)c3n2)cn1 [PF04217903] (first compound 0.01 µM, partner dose 1 µM)	89	73.2	65.2	87.5	219	155	168	79	17.4	83.1
OCc1c[nH]c2ccccc12 [Indole-3-carbinol] + CC1(C)NC(=O)N(c2ccc([N+](=O)[O-])c(C(F)(F)F)c2)C1=O [nilutamide] (first compound 0.8 µM, partner dose 1 µM)	270	79.9	87.2	34.7	86.5	86.9	176	85.6	217	68.7
Cn1nnc2c(C(N)=O)ncn2c1=O [temozolomide] + C=CCn1c(=O)c2cnc(Nc3ccc(N4CCN(C)CC4)cc3)nc2n1-c1cccc(C(C)(C)O)n1 [MK1775] (first compound 2 µM, partner dose 0.02 µM)	85.4	111	303	161	159	105	124	115	78.3	101
CO[C@@H]1[C@H](N(C)C(=O)c2ccccc2)C[C@H]2O[C@]1(C)n1c3ccccc3c3c4c(c5c6ccccc6n2c5c31)C(=O)NC4 [Midostaurin] + NC(=O)Nc1cc(-c2cccc(F)c2)sc1C(=O)N[C@H]1CCCNC1 [AZD7762] (first compound 0.08 µM, partner dose 0.02 µM)	79.3	125	132	740	108	68.1	117	124	140	84.8
Cn1c(Nc2ccc(C(F)(F)F)cc2)nc2cc(Oc3ccnc(-c4ncc(C(F)(F)F)[nH]4)c3)ccc21 + C=CCn1c(=O)c2cnc(Nc3ccc(N4CCN(C)CC4)cc3)nc2n1-c1cccc(C(C)(C)O)n1 [MK1775] (first compound 0.08 µM, partner dose 0.02 µM)	175	80	288	623	250	138	96.5	124	192	117
C#Cc1cccc(Nc2ncnc3cc(OCCOC)c(OCCOC)cc23)c1 [erlotinib] + Cc1ccc(NC(=O)c2cccc(N(C)C)c2)cc1NC(=O)c1ccc(O)cc1 [ZM336372] (first compound 0.8 µM, partner dose 2 µM)	72.4	178	250	82.5	70.8	24.6	77.4	117	44.5	108
Clc1ccc(Nc2nnc(Cc3ccncc3)c3ccccc23)cc1 [vatalanib] + O=C(Nc1cccc(Cl)c1)Nc1ncc(CCNc2ncnc3ccsc23)s1 [SNS314] (first compound 2 µM, partner dose 0.0008 µM)	76.9	22.3	193	326	76.3	206	130	116	125	90.1
COCC[n+]1c2c(n(Cc3cnccn3)c1C)C(=O)c1ccccc1C2=O + COc1cc2c(Oc3ccc4[nH]c(C)cc4c3F)ncnc2cc1OCCCN1CCCC1 [cediranib] (first compound 0.0004 µM, partner dose 0.4 µM)	83.7	27.7	167	158	23.5	2100	156	92.8	65.5	82.8
NC(=O)Nc1cc(-c2cccc(F)c2)sc1C(=O)N[C@H]1CCCNC1 + CN(NC(=O)CC(=O)NN(C)C(=S)c1ccccc1)C(=S)c1ccccc1 [STA4783] (first compound 0.02 µM, partner dose 0.006 µM)	179	97	111	8270	229	2760	121	711	189	157
OCCn1cc(-c2cnc3nnn(Cc4ccc5ncccc5c4)c3n2)cn1 + Cn1cncc1[C@@](N)(c1ccc(Cl)cc1)c1ccc2c(c1)c(-c1cccc(Cl)c1)cc(=O)n2C [tipifarnib] (first compound 1 µM, partner dose 0.01 µM)	87.5	85.9	113	188	116	261	169	98	35.7	125
C[C@]1(c2nc3c(C(N)=O)cccc3[nH]2)CCCN1 [Veliparib] + CN(NC(=O)CC(=O)NN(C)C(=S)c1ccccc1)C(=S)c1ccccc1 [STA4783] (first compound 1.4 µM, partner dose 0.006 µM)	151	27.5	136	5700	220	1480	143	748	382	405
Cc1cc(N2CCOCC2)cc2[nH]c(-c3c(NC[C@@H](O)c4cccc(Cl)c4)cc[nH]c3=O)nc12 + O=C(Nc1cccc(Cl)c1)Nc1ncc(CCNc2ncnc3ccsc23)s1 [SNS314] (first compound 0.2 µM, partner dose 0.0008 µM)	90.4	74.1	92.8	134	134	1000	185	93.1	34.7	106
O=C(CCCCCCC(=O)Nc1ccccc1)NO [vorinostat] + C[C@@H]1CCN(C(=O)CC#N)C[C@@H]1N(C)c1ncnc2[nH]ccc12 [CP690550] (first compound 0.08 µM, partner dose 1 µM)	84.5	78.7	67.8	208	79	109	87.5	81.1	99.9	104
